Results taken from publication doi:10.1101/409508.
These are yes or no findings as the source states them, for the method shown. Binding seen in cells or lysates may run through a third protein. Some entries that bind do so weakly or less than the wild type.

Chains of the proteins cited; added tags and fusions are not shown. Lines headed by an entry give the natural chain unless they say otherwise; changes in a name come on top.
UniProt P54619: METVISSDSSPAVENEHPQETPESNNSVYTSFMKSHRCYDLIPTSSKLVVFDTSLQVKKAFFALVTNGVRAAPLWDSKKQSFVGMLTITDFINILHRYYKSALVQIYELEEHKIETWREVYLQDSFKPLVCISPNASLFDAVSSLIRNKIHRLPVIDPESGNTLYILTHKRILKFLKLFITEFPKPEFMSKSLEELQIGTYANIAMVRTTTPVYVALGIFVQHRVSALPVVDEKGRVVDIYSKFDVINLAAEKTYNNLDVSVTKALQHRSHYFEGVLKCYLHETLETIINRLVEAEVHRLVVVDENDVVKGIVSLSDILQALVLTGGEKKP
UniProt P78527: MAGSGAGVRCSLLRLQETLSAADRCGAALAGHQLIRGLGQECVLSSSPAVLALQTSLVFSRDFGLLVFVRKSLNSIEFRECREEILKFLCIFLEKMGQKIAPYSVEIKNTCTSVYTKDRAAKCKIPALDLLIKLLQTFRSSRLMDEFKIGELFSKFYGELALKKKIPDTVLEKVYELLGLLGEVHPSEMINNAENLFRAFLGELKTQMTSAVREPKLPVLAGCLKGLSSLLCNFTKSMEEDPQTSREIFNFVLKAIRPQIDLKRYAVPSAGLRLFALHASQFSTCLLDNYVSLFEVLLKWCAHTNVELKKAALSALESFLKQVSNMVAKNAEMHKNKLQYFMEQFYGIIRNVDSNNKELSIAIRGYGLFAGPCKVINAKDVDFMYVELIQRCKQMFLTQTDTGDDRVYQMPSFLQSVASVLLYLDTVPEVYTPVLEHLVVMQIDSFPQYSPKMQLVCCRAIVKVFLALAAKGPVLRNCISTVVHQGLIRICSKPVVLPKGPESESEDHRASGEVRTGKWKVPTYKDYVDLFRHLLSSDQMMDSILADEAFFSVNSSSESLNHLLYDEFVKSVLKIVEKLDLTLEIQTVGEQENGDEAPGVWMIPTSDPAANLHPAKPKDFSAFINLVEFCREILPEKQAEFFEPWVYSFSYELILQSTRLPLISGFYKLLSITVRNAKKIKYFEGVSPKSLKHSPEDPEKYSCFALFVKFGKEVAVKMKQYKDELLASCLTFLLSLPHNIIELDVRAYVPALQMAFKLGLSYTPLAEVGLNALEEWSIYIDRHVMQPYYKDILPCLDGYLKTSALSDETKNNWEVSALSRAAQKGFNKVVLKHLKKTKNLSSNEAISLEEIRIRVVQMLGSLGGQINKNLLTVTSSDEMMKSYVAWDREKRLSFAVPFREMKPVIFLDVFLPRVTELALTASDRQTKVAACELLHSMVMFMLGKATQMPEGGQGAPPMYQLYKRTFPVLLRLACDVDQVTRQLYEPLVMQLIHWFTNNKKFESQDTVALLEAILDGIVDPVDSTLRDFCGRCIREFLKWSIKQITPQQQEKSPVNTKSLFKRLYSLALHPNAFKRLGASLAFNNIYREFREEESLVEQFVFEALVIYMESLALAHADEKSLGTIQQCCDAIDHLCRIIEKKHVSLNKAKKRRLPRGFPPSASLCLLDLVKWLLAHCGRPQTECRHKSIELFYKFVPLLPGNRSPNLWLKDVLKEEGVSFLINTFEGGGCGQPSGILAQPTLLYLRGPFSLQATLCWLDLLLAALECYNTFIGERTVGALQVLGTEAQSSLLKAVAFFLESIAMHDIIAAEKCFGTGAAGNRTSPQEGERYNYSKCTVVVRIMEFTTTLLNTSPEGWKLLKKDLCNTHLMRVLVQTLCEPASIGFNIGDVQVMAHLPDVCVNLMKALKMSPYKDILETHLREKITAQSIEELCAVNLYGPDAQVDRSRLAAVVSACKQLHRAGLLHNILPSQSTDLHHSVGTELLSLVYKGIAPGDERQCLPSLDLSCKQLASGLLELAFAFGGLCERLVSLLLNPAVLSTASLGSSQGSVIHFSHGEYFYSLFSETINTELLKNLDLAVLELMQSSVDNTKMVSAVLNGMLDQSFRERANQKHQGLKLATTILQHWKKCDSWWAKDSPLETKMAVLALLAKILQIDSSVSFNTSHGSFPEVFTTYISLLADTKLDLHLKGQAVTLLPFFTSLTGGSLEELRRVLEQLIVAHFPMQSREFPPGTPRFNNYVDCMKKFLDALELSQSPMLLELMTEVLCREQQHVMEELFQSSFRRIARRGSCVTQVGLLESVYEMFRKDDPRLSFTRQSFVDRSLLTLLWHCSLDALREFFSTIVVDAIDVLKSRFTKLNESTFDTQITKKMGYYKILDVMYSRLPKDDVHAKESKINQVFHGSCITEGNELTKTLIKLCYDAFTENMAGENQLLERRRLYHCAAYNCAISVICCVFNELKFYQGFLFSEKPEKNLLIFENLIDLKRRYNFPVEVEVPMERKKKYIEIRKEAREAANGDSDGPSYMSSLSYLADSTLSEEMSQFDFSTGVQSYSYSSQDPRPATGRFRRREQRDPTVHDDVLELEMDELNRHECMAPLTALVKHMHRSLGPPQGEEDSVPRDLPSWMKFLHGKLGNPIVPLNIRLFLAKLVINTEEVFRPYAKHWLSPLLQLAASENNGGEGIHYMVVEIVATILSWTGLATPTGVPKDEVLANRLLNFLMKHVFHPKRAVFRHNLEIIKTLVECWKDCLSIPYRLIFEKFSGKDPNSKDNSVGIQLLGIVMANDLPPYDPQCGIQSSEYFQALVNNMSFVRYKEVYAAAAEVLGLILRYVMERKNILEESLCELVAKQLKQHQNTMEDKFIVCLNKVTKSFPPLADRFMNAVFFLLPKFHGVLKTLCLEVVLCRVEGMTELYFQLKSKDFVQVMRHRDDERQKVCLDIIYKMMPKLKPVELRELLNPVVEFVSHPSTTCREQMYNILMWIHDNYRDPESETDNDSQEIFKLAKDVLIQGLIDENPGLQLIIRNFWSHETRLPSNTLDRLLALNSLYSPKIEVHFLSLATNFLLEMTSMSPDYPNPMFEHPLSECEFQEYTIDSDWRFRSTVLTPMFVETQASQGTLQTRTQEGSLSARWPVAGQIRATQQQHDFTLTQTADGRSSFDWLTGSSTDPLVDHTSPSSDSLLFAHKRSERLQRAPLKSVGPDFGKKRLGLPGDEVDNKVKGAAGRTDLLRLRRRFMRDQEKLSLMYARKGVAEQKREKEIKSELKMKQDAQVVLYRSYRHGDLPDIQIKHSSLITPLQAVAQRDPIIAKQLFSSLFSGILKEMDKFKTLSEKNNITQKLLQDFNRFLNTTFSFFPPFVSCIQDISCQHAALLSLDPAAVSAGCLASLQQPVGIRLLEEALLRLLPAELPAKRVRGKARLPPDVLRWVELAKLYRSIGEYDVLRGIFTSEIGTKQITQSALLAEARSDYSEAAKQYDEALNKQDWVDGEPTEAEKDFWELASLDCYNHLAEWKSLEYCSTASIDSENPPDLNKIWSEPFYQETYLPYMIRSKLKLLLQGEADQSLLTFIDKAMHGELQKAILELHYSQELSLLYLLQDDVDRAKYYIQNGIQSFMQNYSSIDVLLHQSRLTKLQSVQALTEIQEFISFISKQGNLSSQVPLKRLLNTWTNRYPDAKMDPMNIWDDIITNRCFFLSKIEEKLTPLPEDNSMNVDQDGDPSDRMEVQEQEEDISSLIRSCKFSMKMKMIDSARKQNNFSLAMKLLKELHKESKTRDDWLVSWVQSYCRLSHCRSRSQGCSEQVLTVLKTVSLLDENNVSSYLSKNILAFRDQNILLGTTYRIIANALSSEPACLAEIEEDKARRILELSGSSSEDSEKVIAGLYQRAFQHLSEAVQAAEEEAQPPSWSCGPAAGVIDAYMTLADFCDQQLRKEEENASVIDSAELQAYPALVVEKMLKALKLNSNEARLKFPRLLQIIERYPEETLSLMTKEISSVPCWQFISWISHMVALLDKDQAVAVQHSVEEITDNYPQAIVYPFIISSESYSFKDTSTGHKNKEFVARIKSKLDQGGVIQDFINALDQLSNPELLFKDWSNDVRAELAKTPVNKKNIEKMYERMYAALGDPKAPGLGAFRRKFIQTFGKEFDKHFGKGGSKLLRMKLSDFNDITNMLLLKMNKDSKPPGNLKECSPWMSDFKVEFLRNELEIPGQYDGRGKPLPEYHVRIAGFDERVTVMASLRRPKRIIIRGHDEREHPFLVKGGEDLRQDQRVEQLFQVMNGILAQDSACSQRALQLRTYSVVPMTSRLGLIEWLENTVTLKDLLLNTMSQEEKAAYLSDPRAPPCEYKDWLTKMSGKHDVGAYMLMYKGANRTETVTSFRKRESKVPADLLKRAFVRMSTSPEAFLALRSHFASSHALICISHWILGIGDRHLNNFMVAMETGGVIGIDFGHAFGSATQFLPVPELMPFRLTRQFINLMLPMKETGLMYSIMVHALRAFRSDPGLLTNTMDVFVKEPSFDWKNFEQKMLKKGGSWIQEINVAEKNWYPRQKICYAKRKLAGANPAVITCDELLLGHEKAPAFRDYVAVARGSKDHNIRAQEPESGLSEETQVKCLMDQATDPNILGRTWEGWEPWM

What was measured:
Experiment in all cases: co-IP
[1] = biological target: AMPKγ1-mCh-Flag S192A/T284A (AA mutant) (UniProt P54619)
[2] = biological target: AMPKγ1-mCh-Flag wild type (UniProt P54619)
[3] = biological target: T1, Unc-51-like kinase 1 (ULK1) (human (endogenous in U2OS)) (UniProt O75385)
T1 sequence: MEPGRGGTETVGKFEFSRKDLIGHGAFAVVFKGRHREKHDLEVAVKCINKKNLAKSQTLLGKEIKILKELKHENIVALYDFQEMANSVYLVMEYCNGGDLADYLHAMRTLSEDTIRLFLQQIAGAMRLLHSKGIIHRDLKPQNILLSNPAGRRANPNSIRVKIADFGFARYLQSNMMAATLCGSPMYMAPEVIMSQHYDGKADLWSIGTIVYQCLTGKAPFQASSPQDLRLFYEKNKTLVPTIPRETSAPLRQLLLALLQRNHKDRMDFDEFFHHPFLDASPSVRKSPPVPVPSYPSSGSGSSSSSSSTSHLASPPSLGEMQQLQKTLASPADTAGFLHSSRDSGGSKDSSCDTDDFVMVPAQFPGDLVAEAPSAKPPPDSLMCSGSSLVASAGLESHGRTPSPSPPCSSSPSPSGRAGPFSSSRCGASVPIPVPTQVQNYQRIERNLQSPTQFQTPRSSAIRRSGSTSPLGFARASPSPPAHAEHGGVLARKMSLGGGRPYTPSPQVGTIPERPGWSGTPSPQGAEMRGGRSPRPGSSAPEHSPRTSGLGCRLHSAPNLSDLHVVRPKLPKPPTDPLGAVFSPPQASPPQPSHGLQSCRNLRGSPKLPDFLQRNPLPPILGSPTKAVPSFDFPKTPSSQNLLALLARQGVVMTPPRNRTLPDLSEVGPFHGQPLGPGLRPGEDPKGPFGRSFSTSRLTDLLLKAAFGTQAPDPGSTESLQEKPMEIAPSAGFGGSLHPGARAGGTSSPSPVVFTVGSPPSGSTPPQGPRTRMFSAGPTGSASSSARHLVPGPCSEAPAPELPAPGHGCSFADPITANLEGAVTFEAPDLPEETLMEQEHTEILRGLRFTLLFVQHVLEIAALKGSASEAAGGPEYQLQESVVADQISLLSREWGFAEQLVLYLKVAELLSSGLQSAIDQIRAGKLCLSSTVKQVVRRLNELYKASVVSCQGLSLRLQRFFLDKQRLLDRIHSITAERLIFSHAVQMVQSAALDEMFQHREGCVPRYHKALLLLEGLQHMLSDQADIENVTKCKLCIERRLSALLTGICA

Measured: binding

catalytic subunit of DNA-dependent protein kinase (DNA-PKcs) (from UniProt P78527 1-4128)
binds: [1] | [2] | [3]
